In all, about 3,300 compounds went through this assay and about 60 (2%) showed an effect of 50% or more. Some of the results follow. Peptide text beside a SMILES is read from it.
These molecules were tested on HCoV-OC43. Conditions: 24 h post infection, 1 h compound pre-incubation; 10 µM; inhibitor.
Set-up: species or system RD; HTS, protection from HCoV-OC43 induced cell death, luminescent cell viability (CellCounting-Lite 2.0), inhibition rate

| SMILES | OC43 Inhibition rate [%] |
| --- | --- |
| OC[C@H]1O[C@@H](Oc2ccc3c(c2)OC[C@H]2c4cc5c(cc4O[C@@H]32)OCO5)[C@H](O)[C@@H](O)[C@@H]1O [Trifolirhizin] | 0.2 |
| C=C(CO)C(=O)O[C@H]1CC(=C)[C@@H]2C[C@H](O)C(=C)[C@@H]2[C@H]2OC(=O)C(=C)[C@@H]21 [Cynaropicrin] | -2.3 |
| O=C(O[C@@H]1Cc2c(O)cc(O)cc2O[C@H]1c1cc(O)c(O)c(O)c1)c1cc(O)c(O)c(O)c1 [(-)-Gallocatechin gallate] | 1.5 |
| CC1=CCC(C(C)C)=CC1 [γ-Terpinene] | 0.9 |
| Oc1cc2cc[nH]c2cc1O [5,6-Dihydroxyindole] | -0.2 |
| O=C1c2c(O)cc(O)cc2O[C@H](c2cc(O)c(O)c(O)c2)[C@H]1O [Dihydromyricetin] | -0.8 |
| CCOc1ccc2ccc(=O)oc2c1 [7-Ethoxycoumarin] | 0 |
| COc1ccc([C@@H]2CC(=O)c3c(O)cc(O[C@@H]4O[C@H](CO[C@@H]5O[C@@H](C)[C@H](O)[C@@H](O)[C@H]5O)[C@@H](O)[C@H](O)[C@H]4O)cc3O2)cc1OC [Methyl-Hesperidin] | 0.1 |
| C[C@H](CCC(=O)NCCS(=O)(=O)O)[C@H]1CC[C@H]2[C@@H]3[C@@H](O)C[C@@H]4C[C@H](O)CC[C@]4(C)[C@H]3CC[C@]12C [Tauroursodeoxycholate] | 2 |
| Cc1cccc(CC(=O)O)c1 [m-Tolylacetic acid] | -0.7 |
| COc1c(O)cc2oc3cc(O)c(CC=C(C)C)c(O)c3c(=O)c2c1CC=C(C)C [alpha-Mangostin] | 16.6 |
| C=C1C(=O)[C@@]23[C@H](O)C[C@@H]4C(C)(C)CC[C@H](O)[C@@]4(CO)[C@@H]2CC[C@@H]1[C@H]3O [Kamebakaurin] | -2.9 |
| COc1ccc(CC(=O)O)cc1 [2-(4-Methoxyphenyl)acetic acid] | 0 |
| C=CCCCCCCCCC(=O)O [10-Undecenoic acid] | 2.6 |
| CCCCC/C=C\C/C=C\CCCCCCCC(=O)O[C@H]1CC[C@@]2(C)C(=CC[C@H]3[C@@H]4CC[C@H]([C@H](C)CCCC(C)C)[C@@]4(C)CC[C@@H]32)C1 [Cholesteryl linoleate] | 0.3 |
| NCC(=O)N[C@@H](Cc1ccc(O)cc1)C(=O)O [Glycyl-L-tyrosine] (H-Gly-Tyr-OH) | -0.2 |
| Cc1nc2n(c(=O)c1CCN1CCC(c3noc4cc(F)ccc34)CC1)CCCC2O (centres unmarked) [Paliperidone] | 0 |

Reference: publication PMC12431657, “Discovery and mechanistic insights of dibenzoylmethane as a broad spectrum inhibitor of coronavirus” (PLOS Pathogens, 2025)
